Results published in patent US10370327B2, “Ionic liquid films with multiple functionalities for surface modification of biomedical alloys” (BOARD OF REGENTS, THE UNIVERSITY OF TEXAS SYSTEM, priority 2014, dated 2019).

Assays:
[1] = AFM adhesion strength of IL coating on Ti; conditions: IL-coated Ti
[2] = Pin-on-disk tribology of IL-coated Ti against Ti6Al4V ball; conditions: 10N, 2 Hz, 2000 cycles

SMILES	Coating adhesion strength [1]	Friction coefficient [2]
C[n+]1ccn(CCCCCCCCCCn2cc[n+](C)c2)c1.NC(Cc1ccccc1)C(=O)[O-].NC(Cc1ccccc1)C(=O)[O-] [IL-9, 1,10-Bis(3-methylimidazolium-1-yl)decane diphenylalanine]	around 73.5 nN	0.1
CSCC[C@H](N)C(=O)O.CSCC[C@H](N)C(=O)O.C[n+]1ccn(CCCCCCCCCCn2cc[n+](C)c2)c1 [IL-12, 1,10-Bis(3-methylimidazolium-1-yl)decane dimethionine]	46.2 nN	–
